PubChem BioAssay AID504847 (National Center for Advancing Translational Sciences (NCATS), 2011)
In all, about 400,000 compounds went through this assay and about 3,700 (0.93%) were called active. The inconclusive results got no clear call from the source; some entries with a clear call stand among them for comparison. Calls come from the whole dose curve; as a rule, active = well fitted inhibition curve with a large enough effect; inconclusive = small, poorly fitted or top-dose-only effect, or another doubt; inactive = no such curve, though single readings can be large or run the other way. Where the call is inconclusive, the potency comes from a doubtful curve fit.

Sequences of proteins named here, by UniProt entry; tags and fusion partners are left off.
UniProt P11473, whole entry, looked up: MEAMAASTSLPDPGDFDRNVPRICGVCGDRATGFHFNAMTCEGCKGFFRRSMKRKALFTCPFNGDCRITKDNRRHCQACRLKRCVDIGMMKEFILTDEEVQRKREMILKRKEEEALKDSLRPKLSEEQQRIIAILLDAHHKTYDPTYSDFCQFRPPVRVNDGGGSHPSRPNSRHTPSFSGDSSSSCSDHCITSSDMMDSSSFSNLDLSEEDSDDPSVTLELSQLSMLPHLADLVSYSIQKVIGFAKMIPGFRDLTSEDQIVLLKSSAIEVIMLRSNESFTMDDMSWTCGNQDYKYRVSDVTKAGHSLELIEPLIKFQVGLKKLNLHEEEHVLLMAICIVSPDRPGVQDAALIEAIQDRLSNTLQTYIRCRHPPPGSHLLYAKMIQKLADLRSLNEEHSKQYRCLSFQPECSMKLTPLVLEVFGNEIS

The compounds below were run against Vitamin D3 receptor (Homo sapiens) (UniProt P11473) (assay: Inhibitors of the vitamin D receptor (VDR): qHTS). Conditions: VDR-SRC2-3 peptide fluorescence polarization, 2 h; max response, negative = inhibition: active compounds read low.
Summary of the method: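 Two reagent solutions held at 4 deg C in the dark were dispensed, compounds pinned at 23 nl, and the mixture incubated 2 h at room temperature. Read-out: fluorescence polarization of VDR–SRC2-3 peptide binding.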
% is set by controls: 0 for no effect and ±100 for the full control effect; potency is the fitted concentration of half-maximal effect.

Structure (SMILES) | max response, negative = inhibition | Potency
CC(C)(C)c1ccc(NC(=O)COC(=O)C2(C)CC2(Cl)Cl)cc1 (stereo unspecified) | inactive: -2.66% | 
COC(=O)CN1C(=O)CSc2ccc(S(=O)(=O)Nc3ccc(Cl)cc3C)cc21 | inactive: 6.72% | 
Cc1ccc2ccc(C(Nc3ccccn3)c3ccccc3)c(O)c2n1 (stereo unspecified) |  | inconclusive: 63.1 µM [inhibitor, partial curve, poor fit]
COc1ccc(/C=C/C(=O)C2C(=O)C=C(C)OC2=O)cc1O (stereo unspecified) |  | inconclusive: 79.4 µM [inhibitor, single point]
C=CCN=c1sc(C(=O)OC)cc(=O)n1CC=C |  | inconclusive: 56.2 µM [inhibitor, partial curve, poor fit]
COc1ccc(-n2c(SC3CCOC3=O)nc3ccccc3c2=O)cc1Cl (stereo unspecified) | inactive: -12.7% | 
Cn1c(C(=O)Nc2ccc(Cl)cc2)cc2cc(Cl)ccc21 |  | inconclusive: 89.1 µM [inhibitor, single point]
COc1ccc(CCC(=O)NCc2ccc3c(c2)CCN3C(=O)c2ccc(F)cc2)cc1 | inactive: 1.51% | 
COc1ccc(C(=O)Nc2cccnc2)cc1C(=O)Nc1cccnc1 |  | inconclusive: 112 µM [inhibitor, partial curve, poor fit]
Cc1ccc(S(=O)(=O)N(C)C)cc1NC(=O)c1ccccc1SCC(=O)N1CCCC1 |  | inconclusive: 89.1 µM [inhibitor, single point]
CCOc1cc(CC(=O)N[C@@H](CC(C)C)c2ccccc2N2CCCCC2)ccc1C(=O)O |  | inconclusive: 11.2 µM [inhibitor, partial curve, poor fit]
Cc1ccc2c(c1)N(CC(=O)N1CCCCC1)C(=O)CO2 |  | inconclusive: 5.62 µM [inhibitor, partial curve, poor fit]
O=C1c2ccccc2NC(c2ccc(-c3ccc(F)cc3)o2)N1O (stereo unspecified) |  | inconclusive: 79.4 µM [inhibitor, single point]
Cc1ccc(-n2nc3c(SCCN4CCOCC4)nnc(C)c3c2C)cc1 |  | inconclusive: 56.2 µM [inhibitor, partial curve, poor fit]
CCN1C(=O)CC(Sc2ccccc2C(=O)O)C1=O (stereo unspecified) | inactive: -5.17% | 
Cc1nc2c(C(=O)NCc3ccccc3)cnn2c(C)c1Cc1ccc(F)cc1 | inactive: 3.1% | 
O=c1cc(CO)oc(C(Nc2cccc(C(F)(F)F)c2)c2ccccn2)c1O (stereo unspecified) |  | active: 50.1 µM
CC(C)(C)Cc1nnc(NC(=O)Cc2ccc([N+](=O)[O-])cc2)s1 |  | inconclusive: 56.2 µM [inhibitor, partial curve, poor fit]
Cc1c(NC(=O)Nc2ccc(Cl)c(Cl)c2)sc(=S)n1C |  | inconclusive: 89.1 µM [inhibitor, single point]
COc1cccc(C(=O)NCc2ccc(-c3nc4ccccc4s3)cc2)c1 | inactive: -0.64% | 
O=C(c1cccs1)c1no[n+]([O-])c1C(=O)c1cccs1 |  | active: 44.7 µM
CCC(C)Sc1ccc([C@@H]2[C@@H]3C(=O)N(C)C(=O)[C@@H]3[C@]3(C(=O)OC)CCCCN23)cc1 (stereo partly specified) | inactive: -2.29% | 
Cc1ccc(NC(=O)c2cnn(-c3ccc(C)c(C)c3)c2C2CCN(C(=O)OC(C)(C)C)CC2)c(C)c1 |  | inconclusive: 89.1 µM [inhibitor, single point]
CC(C)c1ccc(CNCCCSc2ncccn2)cc1 | inactive: -10.7% | 

Quoted at random: six records from the list
Structure (SMILES) | max response, negative = inhibition | Potency
Cc1ccc(NC(=O)c2cnn(-c3ccc(C)c(C)c3)c2C2CCN(C(=O)OC(C)(C)C)CC2)c(C)c1 |  | inconclusive: 89.1 µM [inhibitor, single point]
COc1ccc(C(=O)Nc2cccnc2)cc1C(=O)Nc1cccnc1 |  | inconclusive: 112 µM [inhibitor, partial curve, poor fit]
CC(C)(C)c1ccc(NC(=O)COC(=O)C2(C)CC2(Cl)Cl)cc1 (stereo unspecified) | inactive: -2.66% | 
O=c1cc(CO)oc(C(Nc2cccc(C(F)(F)F)c2)c2ccccn2)c1O (stereo unspecified) |  | active: 50.1 µM
Cc1ccc2c(c1)N(CC(=O)N1CCCCC1)C(=O)CO2 |  | inconclusive: 5.62 µM [inhibitor, partial curve, poor fit]
COC(=O)CN1C(=O)CSc2ccc(S(=O)(=O)Nc3ccc(Cl)cc3C)cc21 | inactive: 6.72% | 

(more compounds)

Structure (SMILES) | max response, negative = inhibition | Potency
COc1cc(NC(=O)CN2C(=O)C(c3ccc(C)cc3)=NC23CCCCC3)cc(OC)c1 | inactive: 23% | 
COCCOC(=O)/C(=C/c1ccc(OC(=O)c2ccccc2)cc1)C(C)=O |  | active: 22.4 µM
CCCC[n+]1c(C)sc2ccc(C)cc21 |  | inconclusive: 89.1 µM [inhibitor, single point]
COc1cc(CNc2nc3ccccc3n2C)cc(OC)c1OC | inactive: -5.68% | 
CNC(=S)N(Cc1ccco1)Cc1cc2cc(OC)ccc2[nH]c1=O | inactive: -5.73% | 
O=C1/C(=C/c2ccco2)Cc2ccccc21 | inactive: -19.8% | 
Cc1cccc(Nc2nnc(SCC(=O)Nc3ncc(C(F)(F)F)cc3Cl)s2)c1C |  | inconclusive: 100 µM [inhibitor, single point]
O=C(CSc1n[nH]c(=O)[nH]c1=O)Nc1ccc2c(c1)C(=O)c1ccccc1C2=O |  | inconclusive: 17.8 µM [inhibitor, partial curve, poor fit]
CCCCCCOc1ccc(N2C(=O)CC(SCCN)C2=O)cc1 (stereo unspecified) | inactive: 9.59% | 
CCOc1ccc(-n2c(SCC(=O)Nc3cc(C)on3)nc3c(c2=O)SCC3)cc1 | inactive: 23.4% | 
Clc1ccc(OCCCn2ccnc2)c(Br)c1 |  | inconclusive: 12.6 µM [inhibitor, single point]
COc1ccc(S(=O)(=O)NCCc2sc(C)nc2C)cc1F | inactive: 1.94% | 
Cc1nc(N=Nc2cc([N+](=O)[O-])ccc2Cl)c(COP(=O)(O)O)c(C=O)c1O |  | active: 44.7 µM
CCCCOc1ccc(NC(=O)Nc2nnc(C)s2)cc1 | inactive: 2.65% | 
O=C1NC(=S)CN1c1ccccc1 |  | active: 31.6 µM
Cc1ccccc1CS(=O)(=O)Cc1ccc(C(=O)NCc2ccccn2)o1 | inactive: 8.61% | 
O=S(=O)(C/C(=C/CO)S(=O)(=O)c1ccccc1)c1ccccc1 |  | inconclusive: 63.1 µM [inhibitor, partial curve, poor fit]
COc1ccc(CC(=O)NCc2ccc(F)cc2)cc1S(=O)(=O)N1CCOCC1 |  | inconclusive: 89.1 µM [inhibitor, single point]
COc1ccc(C[C@H]2CN3C(=NC[C@@H]3C(C)C)N2C[C@H](C)NC(=O)c2ccc(C)c(Br)c2)cc1 |  | inconclusive: 100 µM [inhibitor, single point]
CCOCCCn1c(SCC(=O)NC2CCCC2)nc2ccccc2c1=O |  | inconclusive: 17.8 µM [inhibitor, single point]
Cc1ccc(NC(=O)CCC(=O)N/N=C/c2cccnc2)cc1 |  | inconclusive: 0.708 µM [inhibitor, full curve, poor fit]
COc1ccccc1-c1cc(Nc2ccn[nH]2)ncn1 |  | active: 44.7 µM
COc1ccc(/C=N/c2c(-c3ccco3)nc3ccccn23)cc1OC |  | inconclusive: 35.5 µM [inhibitor, partial curve]
Cc1cc(N2C(=O)C=CC2=O)c([N+](=O)[O-])cc1C |  | active: 31.6 µM

Structure (SMILES) | max response, negative = inhibition | Potency
CCOC(=O)c1cc(=O)c2c([N+](=O)[O-])ccc(OC)c2o1 |  | inconclusive: 89.1 µM [inhibitor, single point]
CCCN(c1ccc(C(C)C)cc1)S(=O)(=O)c1ccc2c(c1)CCN2C(=O)CC | inactive: -10.8% | 
O=C(CCc1nc2cccnc2n1Cc1cccs1)Nc1cccc(C(F)(F)F)c1 |  | inconclusive: 100 µM [inhibitor, single point]
CC(=O)c1cc2ccc(O)cc2oc1=O | inactive: -13.1% | 
CN(C)CCN(C(=O)CCS(=O)(=O)c1ccccc1)c1nc2c(F)cccc2s1 | inactive: -14.4% | 
CCCOc1ccc(N/C=C/C(=O)c2ccc(OC)c(OC)c2)cc1 |  | inconclusive: 22.4 µM [inhibitor, partial curve, poor fit]
O=C(NCC1CCN(S(=O)(=O)c2ccccc2)CC1)Nc1ccccc1 |  | inconclusive: 31.6 µM [inhibitor, partial curve, poor fit]
O=C(C1=C(O)C(=O)N(Cc2ccco2)C1c1cccnc1)c1cc2ccccc2o1 (stereo unspecified) |  | inconclusive: 89.1 µM [inhibitor, single point]
CCN(CC)S(=O)(=O)c1ccc(C)c(C(=O)Oc2cccc(-c3cnc4ccccc4n3)c2)c1 | inactive: -4.76% | 
FC(F)(F)c1cccc(Sc2nc(-c3ccccc3)nnc2C(F)(F)F)c1 |  | active: 31.6 µM
CC(NC(=O)C1CCC(C(C)(C)C)CC1)C(c1ccccc1)N1CCOCC1 (stereo unspecified) |  | inconclusive: 31.6 µM [inhibitor, partial curve]
CN(/N=C/c1ccccc1)C(=S)c1ccccc1 |  | inconclusive: 28.2 µM [inhibitor, partial curve, poor fit]
Cc1ccc(-c2cn(-c3cccc(Cl)c3)c(S(=O)(=O)CC(=O)Nc3ccccc3F)n2)cc1 |  | inconclusive: 63.1 µM [inhibitor, partial curve, poor fit]
CCN1CCN(CCCNC(=O)c2ccc(/C=C3/Sc4ccccc4N(Cc4ccccc4F)C3=O)cc2)CC1 | inactive: -3.93% | 
COc1cc2[nH]c(Cl)c([N+](=O)[O-])c2cc1OC |  | inconclusive: 79.4 µM [inhibitor, partial curve, poor fit]
O=C(O)c1ccccc1NCc1cccnc1 | inactive: -19.2% | 
CC1=C(C)CS(=O)N(S(=O)(=O)c2ccccc2)C1 (stereo unspecified) |  | active: 3.16 µM
S=C(N/N=C/c1ccccc1Cl)Nc1cccc(Cl)c1Cl |  | inconclusive: 89.1 µM [inhibitor, single point]
COc1ccc(C)cc1NC(=O)Cn1c(=O)n(Cc2nc(C)no2)c(=O)c2ccccc21 | inactive: -2.37% | 
CCC(C)(C)n1nnnc1C(c1ccccc1OC)N1CCN(C(=O)c2ccco2)CC1 (stereo unspecified) |  | inconclusive: 79.4 µM [inhibitor, single point]
CN1CCN(CC(O)COC(c2ccccc2)c2ccccc2)CC1 (stereo unspecified) | inactive: 12.1% | 
CCN(CC)C(=O)CN1C(=O)/C(=C/c2ccccc2)SC1=S |  | inconclusive: 5.62 µM [inhibitor, partial curve, poor fit]
CC1CCN(S(=O)(=O)N2CCCC(C(=O)NCc3ccc(F)cc3)C2)CC1 (stereo unspecified) |  | active: 79.4 µM
